Source: patent US20220125763A1, “COMPOSITIONS PROVIDING ENHANCED ANTIBACTERIAL ACTIVITY AGAINST GRAM-POSITIVE BACTERIA AND USE THEREOF” (ANIFERA LIMITED, priority 2019, published 2022)
Some of these results come from one statement about several compounds together.

Test system: Staphylococcus aureus Xen30
Test: Minimum inhibitory concentration of antibiotic with or without imidazole compound
Type: cell-based
Details: in combination with other antibiotic compounds
Protocol: Exemplary embodiments of a 2-(substituted-amino)-imidazole compound in combination with an antibiotic compound were tested to evaluate the effect on minimum inhibitory concentration (MIC).
In these experiments, a frozen stock of the bacterial strain was streaked onto a sterile brain heart infusion agar plate and incubated at 37° C. for 16-20 hours. After the incubation period, three to five well-isolated bacterial colonies of the same morphologic type were taken from the brain heart infusion agar plate culture and used to inoculate, using a sterile loop, a tube containing 4 mL to 5 mL of cation adjusted Mueller Hinton (MHII) broth. The culture was allowed to grow in a shaking incubator at 220 rpm at 37° C. until the culture reached logarithmic phase, as determined by the measuring of and achieving an optical density (OD) of 0.3 to 0.5 measured at 600 nm. The bacterial concentration of the culture was then adjusted with the addition of MHII broth to achieve the equivalent of 1×10^6 colony-forming unit (CFU)/mL using the approximation that 1×10^9 CFU/mL is equal to OD600 nm=1. Cells were then treated with the designated amount of test compound (shown in Table 1) or a solvent control (dimethyl sulfoxide) for 30 minutes at ambient conditions. Cells were then transferred into 96-well round bottom plates and exposed to 2-fold serial dilutions of the denoted antibiotic.

Row | SMILES | potentiation effect for antibiotic activity against gram-positive bacteria
1 | O=C(Nc1cccc(-c2cnc(NC(=O)c3ccccc3)[nH]2)c1)Nc1ccc(Cl)c(Cl)c1 [Compound 5, N-(5-(3-(3-(3,4-dichlorophenyl)ureido)phenyl)-1H-imidazol-2-yl)benzamide] | potentiation effect
2 | CNc1ncc(-c2cccc(NC(=O)Nc3ccc(Cl)c(Cl)c3)c2)[nH]1 [Compound 4, 1-(3,4-dichlorophenyl)-3-(3-(2-(methylamino)-1H-Imidazol-5-yl)phenyl)urea] | potentiation effect
3 | CC(C)Nc1ncc(-c2cccc(NC(=O)Nc3ccc(C(F)(F)F)c(Cl)c3)c2)[nH]1 [Compound 3, 1-(3-chloro-4-(trifluoromethyl)phenyl)-3-(3-(2-(Isopropylamino)-1H-imidazol-5-yl)phenyl)urea] | potentiation effect
4 | CC(C)Nc1ncc(-c2cccc(NC(=O)Nc3ccc(Cl)c(Cl)c3)c2)[nH]1 [Compound 1, 1-(3,4-dichlorophenyl)-3-(3-(2-(Isopropylamino)-1H-Imidazol-5-yl)phenyl)urea] | potentiation effect
5 | CC(C)Nc1ncc(-c2cccc(NC(=O)Nc3cc(Cl)cc(Cl)c3)c2)[nH]1 [Compound 2, 1-(3,5-dichlorophenyl)-3-(3-(2-(Isopropylamino)-1H-Imidazol-5-yl)phenyl)urea] | potentiation effect
